In publication PMC10000386:
Results are given in words; binding and its absence hold for the method and conditions named. In cells and extracts the contact can be indirect. Binding can be weak; no strength is given.

Sequences of proteins named here, by UniProt entry; tags and fusion partners are left off. A change or cut given only in a name is not applied to a line headed by its entry.
UniProt Q07812: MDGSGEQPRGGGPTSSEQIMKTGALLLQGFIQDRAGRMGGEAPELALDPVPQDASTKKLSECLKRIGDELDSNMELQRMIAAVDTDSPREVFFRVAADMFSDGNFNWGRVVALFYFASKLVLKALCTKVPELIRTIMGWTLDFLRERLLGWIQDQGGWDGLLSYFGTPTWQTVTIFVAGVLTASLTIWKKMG
UniProt P10415: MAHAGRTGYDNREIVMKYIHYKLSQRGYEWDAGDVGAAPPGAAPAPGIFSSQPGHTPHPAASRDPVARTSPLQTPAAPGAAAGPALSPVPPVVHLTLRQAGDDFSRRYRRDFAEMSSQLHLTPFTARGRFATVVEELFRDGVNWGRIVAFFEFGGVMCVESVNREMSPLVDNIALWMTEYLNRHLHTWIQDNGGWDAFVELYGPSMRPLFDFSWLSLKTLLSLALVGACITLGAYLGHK
UniProt Q9BXH1: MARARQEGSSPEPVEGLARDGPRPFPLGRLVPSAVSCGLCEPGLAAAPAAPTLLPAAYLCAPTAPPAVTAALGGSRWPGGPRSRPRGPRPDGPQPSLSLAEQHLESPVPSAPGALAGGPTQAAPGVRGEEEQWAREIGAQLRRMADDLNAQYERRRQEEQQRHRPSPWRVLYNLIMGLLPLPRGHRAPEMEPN

Key:
Test in all cases: split reporter; BiFC: VN- and VC-Venus fragment fusions (N-terminal) co-transfected in HeLa cells with an mRFP vector, 30 µM Z-VAD-fmk, 37 °C, 24 h; Venus/mRFP mean fluorescence ratio of mRFP-positive cells by flow cytometry; in some experiments ABT-199, A-1155463 or S63845 added 1 h after transfection (reduced the complexes of Bcl-2, Bcl-XL or Mcl-1 with Bim, Puma and Noxa)
Bax ΔBH3 (human) = Bax ΔBH3 (human) (UniProt Q07812)
Bak ΔH1α (human) = Bak ΔH1α (human) (UniProt Q16611)
Bak ΔBH3 (human) = Bak ΔBH3 (human) (UniProt Q16611)
Bak (human) = Bak (human) (UniProt Q16611)
Bak H164A (human) = molecular target: T1, Bak H164A (human) (UniProt Q16611)
T1 sequence: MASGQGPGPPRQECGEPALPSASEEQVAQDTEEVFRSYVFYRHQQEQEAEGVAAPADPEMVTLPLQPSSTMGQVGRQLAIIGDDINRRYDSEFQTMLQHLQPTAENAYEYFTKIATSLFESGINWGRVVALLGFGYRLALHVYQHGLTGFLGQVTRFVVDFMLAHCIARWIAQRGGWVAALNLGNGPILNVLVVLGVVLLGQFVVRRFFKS

| Substance | binding (Bax ΔBH3 (human)) | binding (Bak ΔH1α (human)) | binding (Bak ΔBH3 (human)) | binding (Bak (human)) | binding (Bak H164A (human)) |
| --- | --- | --- | --- | --- | --- |
| Bcl-2 (from UniProt P10415 1-239) | binds |  |  |  |  |
| Puma (from UniProt Q9BXH1 1-193) | binds | binds | binds |  |  |
| Bak ΔH1α (from UniProt Q16611) |  |  |  | binds |  |
| Bak ΔBH3 (from UniProt Q16611) |  | binds |  | binds | binds |
